According to patent US10842776B2, “Hycanthone derivatives and Primaquine derivatives for use in the prevention and/or the treatment of disorders associated to gammaherpesvirus” (priority 2016, dated 2020):
Some of these results come from one statement about several compounds together.

Tested on: MRC-5, primary cutaneous fibroblasts, primary keratinocytes, Hela P4
Test: Cell viability (ATP quantitation, CellTiter Glo) of cells not infected by HHV8
Conditions: 10 μM, 48 h
Protocol: HHV8 infected cell line (BC3), HHV8-non infected cell lines (MRC5, HeLa P4), and HHV8 non infected primary cells (human keratinocytes, human cutaneous fibroblasts, B-type lymphocytes CD19+) were grown in vitro and treated by either Primaquine diphosphate, Hycanthone, Paclitaxel or Doxorubicin hydrochloride at a concentration of 10 μM. Cell viability was evaluated by ATP quantitation 48 h after the treatment started.
The effect of Primaquine diphosphate (Sigma), Hycanthone (Sigma), Paclitaxel (Sigma), and Doxorubicin (Sigma) were evaluated on relevant primary cells and cell lines that are or not infected by HHV-8.
• BC-3: cell line established from pleural effusion from a human immunodeficiency virus (HIV) negative patient diagnosed with primary effusion lymphoma (PEL). […]
Cells were treated in vitro with either Primaquine diphosphate (Sigma), Hycanthone (Sigma), Paclitaxel (Sigma), or Doxorubicin hydrochloride (Sigma) at a concentration of 10 μM. The viability of the cells was evaluated 48 h after the treatment started as previously described with the Kit CellTiter Glo (Promega).

In the case of `COc1cc(NC(C)CCCN)c2ncccc2c1` (stereo not shown) [Primaquine diphosphate, Primaquine], the “toxicity (cell death) in other cell types non infected by HHV8” value is reported as less than 20%.
